From publication doi:10.1101/2024.02.27.582366
These are yes or no findings as the source states them, for the method shown. In cells and extracts the contact can be indirect. These calls come from enrichment with a bait or labelling near it, and not all partners need be listed. Tags and fused reporters may be left off the sequences shown.

The chains behind the UniProt entries cited, without tags or fusion partners.
UniProt P62746: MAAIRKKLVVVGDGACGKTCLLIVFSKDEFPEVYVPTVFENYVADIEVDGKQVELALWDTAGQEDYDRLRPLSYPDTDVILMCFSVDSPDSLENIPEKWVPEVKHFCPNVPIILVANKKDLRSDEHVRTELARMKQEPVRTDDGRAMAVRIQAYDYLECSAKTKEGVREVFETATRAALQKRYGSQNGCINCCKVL
UniProt P43006: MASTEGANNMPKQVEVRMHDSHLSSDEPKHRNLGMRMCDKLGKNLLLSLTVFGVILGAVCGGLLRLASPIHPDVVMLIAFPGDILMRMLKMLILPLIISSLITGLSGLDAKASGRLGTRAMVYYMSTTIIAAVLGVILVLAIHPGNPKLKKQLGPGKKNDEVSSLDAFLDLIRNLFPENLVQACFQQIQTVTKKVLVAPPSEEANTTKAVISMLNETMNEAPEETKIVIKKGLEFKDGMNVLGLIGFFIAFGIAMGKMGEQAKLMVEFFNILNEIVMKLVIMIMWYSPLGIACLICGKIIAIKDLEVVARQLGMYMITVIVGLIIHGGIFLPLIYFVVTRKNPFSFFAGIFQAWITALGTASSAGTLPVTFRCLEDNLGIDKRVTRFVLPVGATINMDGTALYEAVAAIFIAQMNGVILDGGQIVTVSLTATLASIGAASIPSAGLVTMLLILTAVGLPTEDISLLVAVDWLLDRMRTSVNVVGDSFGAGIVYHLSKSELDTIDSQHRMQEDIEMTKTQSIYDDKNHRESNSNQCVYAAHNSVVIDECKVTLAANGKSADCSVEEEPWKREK
UniProt P84096: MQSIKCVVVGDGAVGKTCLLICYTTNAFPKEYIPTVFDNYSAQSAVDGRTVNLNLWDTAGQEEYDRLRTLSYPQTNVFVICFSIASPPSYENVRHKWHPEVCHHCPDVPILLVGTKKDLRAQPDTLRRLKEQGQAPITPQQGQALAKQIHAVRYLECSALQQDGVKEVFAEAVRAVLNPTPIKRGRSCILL

T1: Flag-tagged human Thioredoxin1 Cys35Ser mutant (flag-hTrx1C35S) (human) (UniProt P10599)
T1 sequence: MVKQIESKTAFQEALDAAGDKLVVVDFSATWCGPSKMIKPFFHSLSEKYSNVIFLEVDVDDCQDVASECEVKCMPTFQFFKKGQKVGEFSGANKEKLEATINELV

B1: electrogenic sodium bicarbonate cotransporter 1 (SLC4A4) (protein, UniProt O88343 1-1079)
chain: MEDEAVLDRGASFLKHVCDEEEVEGHHTIYIGVHVPKSYRRRRRHKRKAGHKEKKEKERISENYSDKSDVENADESSSSILKPLISPAAERIRFILGEEDDSPAPPQLFTELDELLAVDGQEMEWKETARWIKFEEKVEQGGERWSKPHVATLSLHSLFELRTCMEKGSIMLDREASSLPQLVEMIADHQIETGLLKPDLKDKVTYTLLRKHRHQTKKSNLRSLADIGKTVSSASRMFSNPDNGSPAMTHRNLTSSSLNDISDKPEKDQLKNKFMKKLPRDAEASNVLVGEVDFLDTPFIAFVRLQQAVMLGALTEVPVPTRFLFILLGPKGKAKSYHEIGRAIATLMSDEVFHDIAYKAKDRHDLIAGIDEFLDEVIVLPPGEWDPTIRIEPPKSLPSSDKRKNMYSGGENVQMNGDTPHDGGHGGGGHGDCEELQRTGRFCGGLIKDIKRKAPFFASDFYDALNIQALSAILFIYLATVTNAITFGGLLGDATDNMQGVLESFLGTAVSGAIFCLFAGQPLTILSSTGPVLVFERLLFNFSKDHNFDYLEFRLWIGLWSAFMCLVLVATDASFLVQYFTRFTEEGFSSLISFIFIYDAFKKMIKLADYYPINSDFKVGYNTHFSCACLPPDPVNLSVSNDTTLAPEDLPTISSTDMYHNVTFDWAYLSKKECVKYGGKLVGNNCDFVPDITLMSFILFLGTYTSSMAMKKFKTSRYFPTTARKLISDFAIILSILIFCVIDALVGVDTPKLIVPSEFKPTSPNRGWFVPPFGGNPWWVCLAAAIPALLVTILIFMDQQITAVIVNRKEHKLKKGAGYHLDLFWVAILMVVCSFMALPWYVAATVISIAHIDSLKMETETSAPGEQPKFLGVREQRVTGTLVFILTGLSVFMAPILKFIPMPVLYGVFLYMGVASLNGVQFMDRLKLLLMPLKHQPDFIYLRHVPLRRVHLFTFLQVLCLALLWILKSTVAAIIFPVMILALVAVRKGMDYLFSQHDLSFLDDVIPEKDKKKKEDEKKKKKKKGSLDSDNDDSDCPYSEKVPSIKIPMDIMEQQPFLSDNKPLDRERSSTFLERHTSC
B2: Alpha-internexin (INA) (protein, UniProt P46660 1-501)
chain: MSFGSEHYLCSASSYRKVFGDSSRLSARLSGPGGSGSFRSQSLSRSNVASTAACSSASSLGLGLAYRRLPASDGLDLSQAAARTNEYKIIRTNEKEQLQGLNDRFAVFIEKVHQLETQNRALEAELAALRQRHAEPSRVGELFQRELRELRAQLEEASSARAQALLERDGLAEEVQRLRARCEEESRGREGAERALKAQQRDVDGATLARLDLEKKVESLLDELAFVRQVHDEEVAELLATLQASSQAAAEVDVAVAKPDLTSALREIRAQYESLAAKNLQSAEEWYKSKFANLNEQAARSTEAIRASREEIHEYRRQLQARTIEIEGLRGANESLERQILELEERHSAEVAGYQDSIGQLESDLRNTKSEMARHLREYQDLLNVKMALDIEIAAYRKLLEGEETRFSTGGLSISGLNPLPNPSYLLPPRILSSTASKVSSAGLSLKKEEEEEEEEASKEVSKKTSKVGEGFEETLGEAVISTKKTGKSATEESTSSSQKM

Target: T1, Flag-tagged human Thioredoxin1 Cys35Ser mutant (flag-hTrx1C35S) (human)
Test: affinity purification with mass spectrometry

Row | binding | Molecule
1 | binds | RhoB (from UniProt P62746 1-196)
2 | binds | F-actin-capping protein subunit beta (CAPZB) (from UniProt P47757 1-277)
3 | binds | excitatory amino acid transporter 2 (SLC1A2) (from UniProt P43006 1-572)
4 | binds | Synapsin-1 (SYN1) (from UniProt O88935 1-706)
5 | binds | RhoG (from UniProt P84096 1-191)

Target: T1, Flag-tagged human Thioredoxin1 Cys35Ser mutant (flag-hTrx1C35S) (human)
Test: affinity purification with mass spectrometry
Remark: another data set of the same source

Row | binding | Molecule
6 | binds | B1
7 | binds | B2
